Experimental data taken from publication doi:10.1101/2020.08.14.250746.
No constants are given. Whether binding was seen depends on the method and setting. Binding seen in cells or lysates may run through a third protein. Some entries that bind do so weakly or less than the wild type.

The chains behind the UniProt entries cited, without tags or fusion partners. Residues count along the entry.
UniProt P21271, residues 1-1090: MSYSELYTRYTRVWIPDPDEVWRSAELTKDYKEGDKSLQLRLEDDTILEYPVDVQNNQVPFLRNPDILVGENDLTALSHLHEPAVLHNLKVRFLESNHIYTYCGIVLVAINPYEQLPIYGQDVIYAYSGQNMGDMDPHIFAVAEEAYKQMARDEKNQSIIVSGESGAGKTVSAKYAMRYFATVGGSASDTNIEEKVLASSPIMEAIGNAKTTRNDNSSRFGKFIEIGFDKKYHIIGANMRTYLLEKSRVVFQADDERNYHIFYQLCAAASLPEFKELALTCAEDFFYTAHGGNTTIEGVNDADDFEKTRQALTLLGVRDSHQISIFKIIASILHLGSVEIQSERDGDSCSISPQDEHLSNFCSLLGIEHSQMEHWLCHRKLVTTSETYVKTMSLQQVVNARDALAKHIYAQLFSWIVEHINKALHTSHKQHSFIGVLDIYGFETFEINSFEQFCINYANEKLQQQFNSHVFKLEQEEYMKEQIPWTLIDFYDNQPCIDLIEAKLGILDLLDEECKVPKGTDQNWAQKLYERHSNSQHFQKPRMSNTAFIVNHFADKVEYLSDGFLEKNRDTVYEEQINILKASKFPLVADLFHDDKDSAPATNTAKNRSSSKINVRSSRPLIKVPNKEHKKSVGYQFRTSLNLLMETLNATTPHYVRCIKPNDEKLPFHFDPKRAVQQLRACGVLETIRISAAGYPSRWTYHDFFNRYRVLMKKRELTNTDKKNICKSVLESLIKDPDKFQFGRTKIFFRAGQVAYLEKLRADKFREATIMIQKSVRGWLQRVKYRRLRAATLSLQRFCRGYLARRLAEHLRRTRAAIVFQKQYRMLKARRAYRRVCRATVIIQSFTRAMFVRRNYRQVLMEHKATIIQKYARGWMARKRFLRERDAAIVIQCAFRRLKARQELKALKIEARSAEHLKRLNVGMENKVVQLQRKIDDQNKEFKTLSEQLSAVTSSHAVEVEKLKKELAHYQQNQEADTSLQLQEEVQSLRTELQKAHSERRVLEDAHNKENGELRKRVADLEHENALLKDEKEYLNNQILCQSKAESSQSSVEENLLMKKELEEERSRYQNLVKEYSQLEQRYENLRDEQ
UniProt O88751: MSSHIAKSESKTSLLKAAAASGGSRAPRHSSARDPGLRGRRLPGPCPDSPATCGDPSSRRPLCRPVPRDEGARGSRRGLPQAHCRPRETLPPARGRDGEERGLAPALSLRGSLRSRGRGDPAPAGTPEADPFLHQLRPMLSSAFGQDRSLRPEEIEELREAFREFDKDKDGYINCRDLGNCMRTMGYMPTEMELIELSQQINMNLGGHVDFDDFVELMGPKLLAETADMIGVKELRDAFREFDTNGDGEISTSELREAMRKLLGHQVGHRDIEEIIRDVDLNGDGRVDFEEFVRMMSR

Legend:
MyoVb(1-1090)-GFP-FRB = MyoVb(1-1090)-GFP-FRB (UniProt P21271); experiment: co-IP
[1] = biological target: GFP-myoVa-IQ1 (aa742-791); experiment: co-IP
[2] = biological target: GFP-myoVa-IQ1 (aa742-791); experiment: pull-down

Measured: binding

full-length, tagRFP-coupled caldendrin (from UniProt O88751 1-298)
binds: all assays above
